In test [1] the target is Argonaute 2 (AGO2), endogenous (human (endogenous in A549)) (UniProt Q9UKV8). Description: co-IP.
The target is the same in test [2]. The test can be described thus: co-IP; Figure S6 (legend not shown); immunoprecipitation coupled with RNase treatment.
Test [3] addresses V5-AGO2-PIWI-581∼859aa (human) (UniProt Q9UKV8). Description: co-IP; 293 cells transfected with Flag-RIG-I and full-length or truncated V5-AGO2; AGO2 constructs immunoprecipitated, RIG-I detected; low salt lysis buffer (150 mM NaCl, 50 mM Tris pH 7.4, 1% Triton X-100, 1 mM EDTA), 4 °C overnight.
Test [4] addresses V5-AGO2-N-1∼139aa (human) (UniProt Q9UKV8). Described as above.

Protein sequences, listed by entry. Tags and fused reporters are not part of them. Lines headed by an entry give the natural chain unless they say otherwise; changes in a name come on top. Residues count along the entry.
UniProt Q9UKV8: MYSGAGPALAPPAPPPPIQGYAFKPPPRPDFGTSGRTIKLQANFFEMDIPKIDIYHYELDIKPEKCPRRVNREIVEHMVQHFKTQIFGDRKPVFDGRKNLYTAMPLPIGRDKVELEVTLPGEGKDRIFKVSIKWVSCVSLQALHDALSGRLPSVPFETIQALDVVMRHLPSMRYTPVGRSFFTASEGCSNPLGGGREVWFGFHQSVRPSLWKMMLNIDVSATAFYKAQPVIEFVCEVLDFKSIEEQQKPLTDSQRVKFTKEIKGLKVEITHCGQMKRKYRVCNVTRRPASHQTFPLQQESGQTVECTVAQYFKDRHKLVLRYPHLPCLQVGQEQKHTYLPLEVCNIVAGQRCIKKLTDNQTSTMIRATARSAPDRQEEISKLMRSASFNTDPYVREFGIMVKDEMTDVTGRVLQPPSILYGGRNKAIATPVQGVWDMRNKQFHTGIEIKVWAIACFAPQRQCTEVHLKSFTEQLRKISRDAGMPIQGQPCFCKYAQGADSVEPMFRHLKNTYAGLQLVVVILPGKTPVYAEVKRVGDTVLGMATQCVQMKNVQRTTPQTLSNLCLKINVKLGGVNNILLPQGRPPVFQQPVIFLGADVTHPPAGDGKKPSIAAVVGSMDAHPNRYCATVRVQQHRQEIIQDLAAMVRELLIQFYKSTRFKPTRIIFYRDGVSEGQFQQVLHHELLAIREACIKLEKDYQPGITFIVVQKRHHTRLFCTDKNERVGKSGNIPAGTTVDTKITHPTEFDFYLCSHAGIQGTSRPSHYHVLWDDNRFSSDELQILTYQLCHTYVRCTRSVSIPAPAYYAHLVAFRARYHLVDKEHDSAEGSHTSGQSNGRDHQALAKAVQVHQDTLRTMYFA
V5-AGO2-N-1∼139aa: residues 1-139 of Q9UKV8
V5-AGO2-PIWI-581∼859aa: residues 581-859 of Q9UKV8

Results are given in words; binding and its absence hold for the method and conditions named. In cells and extracts the contact can be indirect. Some results given as binding are weak or reduced against the parent protein; the word gives no strength. For some of these results: Tags and fused reporters may be left off the sequences shown.

B1: RIG-I, endogenous (protein, UniProt O95786 1-925)
chain: MTTEQRRSLQAFQDYIRKTLDPTYILSYMAPWFREEEVQYIQAEKNNKGPMEAATLFLKFLLELQEEGWFRGFLDALDHAGYSGLYEAIESWDFKKIEKLEEYRLLLKRLQPEFKTRIIPTDIISDLSECLINQECEEILQICSTKGMMAGAEKLVECLLRSDKENWPKTLKLALEKERNKFSELWIVEKGIKDVETEDLEDKMETSDIQIFYQEDPECQNLSENSCPPSEVSDTNLYSPFKPRNYQLELALPAMKGKNTIICAPTGCGKTFVSLLICEHHLKKFPQGQKGKVVFFANQIPVYEQQKSVFSKYFERHGYRVTGISGATAENVPVEQIVENNDIIILTPQILVNNLKKGTIPSLSIFTLMIFDECHNTSKQHPYNMIMFNYLDQKLGGSSGPLPQVIGLTASVGVGDAKNTDEALDYICKLCASLDASVIATVKHNLEELEQVVYKPQKFFRKVESRISDKFKYIIAQLMRDTESLAKRICKDLENLSQIQNREFGTQKYEQWIVTVQKACMVFQMPDKDEESRICKALFLYTSHLRKYNDALIISEHARMKDALDYLKDFFSNVRAAGFDEIEQDLTQRFEEKLQELESVSRDPSNENPKLEDLCFILQEEYHLNPETITILFVKTRALVDALKNWIEGNPKLSFLKPGILTGRGKTNQNTGMTLPAQKCILDAFKASGDHNILIATSVADEGIDIAQCNLVILYEYVGNVIKMIQTRGRGRARGSKCFLLTSNAGVIEKEQINMYKEKMMNDSILRLQTWDEAVFREKILHIQTHEKFIRDSQEKPKPVPDKENKKLLCRKCKALACYTADVRVIEECHYTVLGDAFKECFVSRPHPKPKQFSSFEKRAKIFCARQNCSHDWGIHVKYKTFEIPVIKIESFVVEDIATGVQTLYSKWKDFHFEKIPFDPAEMSK
As to B1, the binding entry in test [1] and in test [2] was “binds” each time.

B2: Flag-RIG-I, full length (FL) (protein, UniProt O95786 1-925)
chain: MTTEQRRSLQAFQDYIRKTLDPTYILSYMAPWFREEEVQYIQAEKNNKGPMEAATLFLKFLLELQEEGWFRGFLDALDHAGYSGLYEAIESWDFKKIEKLEEYRLLLKRLQPEFKTRIIPTDIISDLSECLINQECEEILQICSTKGMMAGAEKLVECLLRSDKENWPKTLKLALEKERNKFSELWIVEKGIKDVETEDLEDKMETSDIQIFYQEDPECQNLSENSCPPSEVSDTNLYSPFKPRNYQLELALPAMKGKNTIICAPTGCGKTFVSLLICEHHLKKFPQGQKGKVVFFANQIPVYEQQKSVFSKYFERHGYRVTGISGATAENVPVEQIVENNDIIILTPQILVNNLKKGTIPSLSIFTLMIFDECHNTSKQHPYNMIMFNYLDQKLGGSSGPLPQVIGLTASVGVGDAKNTDEALDYICKLCASLDASVIATVKHNLEELEQVVYKPQKFFRKVESRISDKFKYIIAQLMRDTESLAKRICKDLENLSQIQNREFGTQKYEQWIVTVQKACMVFQMPDKDEESRICKALFLYTSHLRKYNDALIISEHARMKDALDYLKDFFSNVRAAGFDEIEQDLTQRFEEKLQELESVSRDPSNENPKLEDLCFILQEEYHLNPETITILFVKTRALVDALKNWIEGNPKLSFLKPGILTGRGKTNQNTGMTLPAQKCILDAFKASGDHNILIATSVADEGIDIAQCNLVILYEYVGNVIKMIQTRGRGRARGSKCFLLTSNAGVIEKEQINMYKEKMMNDSILRLQTWDEAVFREKILHIQTHEKFIRDSQEKPKPVPDKENKKLLCRKCKALACYTADVRVIEECHYTVLGDAFKECFVSRPHPKPKQFSSFEKRAKIFCARQNCSHDWGIHVKYKTFEIPVIKIESFVVEDIATGVQTLYSKWKDFHFEKIPFDPAEMSK
As to B2, the binding entry in test [3] and in test [4] was “binds” each time.

The values above are taken from paper PMC12424427.
